# Experimental data as given in PubChem BioAssay AID493014 (National Center for Advancing Translational Sciences (NCATS), 2011).
# Some of the results follow. Shown are side measurements of this screen, not its main read-out; they come without a call. Most of these compounds were active or inconclusive in the main read-out, so they are no random draw. The note in brackets gives the kind of curve behind each potency; many fits are weak.
# Test: qHTS Assay to Find Inhibitors of Chronic Active B-Cell Receptor Signaling
# Settings: ABC-DLBCL IkBa-CBG/CBR reporter, luminescence ratio (green luciferase fused to IkBa over red control in TMD8 lymphoma cells), 4 h
# Summary of the method: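 Doxycycline induced both beetle luciferases in TMD8 lymphoma cells; IKK-driven degradation limits the IkappaBalpha-fused green signal, while red luminescence normalises for cell number and nonspecific effects. Compounds tested up to 46 uM, 4 hrs.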
# [1] = measured here: CBR red luminescence, cell number
# [2] = measured here: IkBa-CBG green luminescence
compound,measurement,setting,value
Cc1cc(C)c2c(=O)[nH]c(SCc3ccccc3C)nc2n1,AC50,[1],"4.47 µM [falling, full curve]"
CC(=O)CC1=NC(C)(C)Cc2ccccc21,AC50,[1],"15.8 µM [falling, partial curve, poor fit]"
Cc1cccc2nc(C(=O)Nc3cccc(C(=O)NC4CC4)c3)cn12,AC50,[1],"1.46 µM [falling, full curve]"
Cc1ccc(NC(=O)C(C)Sc2nnc3ccccn23)cc1 (stereo not given),AC50,[1],"0.0116 µM [rising, full curve]"
COc1ccc(/C=C2\SC(=O)N(CCC(=O)N3CCCCC3)C2=O)cc1OC,AC50,[1],"20 µM [falling, single point]"
Cc1sc(NC(=O)c2cccnc2)nc1-c1ccccc1,AC50,[1],"35.5 µM [falling, single point]"
Fc1ccc(-c2nc3c(-c4ccccc4)cnn3cc2CCN2CCOCC2)cc1,AC50,[1],"7.94 µM [falling, partial curve, poor fit]"
Cc1ccc(S(=O)(=O)NCCSC(C)(C)C)cc1,AC50,[1],"1.84 µM [rising, full curve, poor fit]"
CCOC(=O)c1cnc2ccccc2c1NCCO,AC50,[1],"3.98 µM [falling, full curve, poor fit]"
same,AC50,[2],"11.2 µM [rising, partial curve, poor fit]"
CCCCCCSc1cc(-c2nc3ccc(C)cn3c2NCc2ccccc2)ccc1OC,AC50,[1],"18.4 µM [falling, single point]"
O=C(Nc1ccccc1)C1CC(=O)N(Cc2ccccc2)C1 (stereo not given),AC50,[1],"35.5 µM [falling, single point]"
O=C(CN1CCOCC1)N1N=C(c2cccs2)CC1c1cccs1 (stereo not given),AC50,[1],"35.5 µM [rising, single point]"
O=C(Nc1ccccc1)C(=O)c1cn(CC(=O)N2CCCCC2)c2ccccc12,AC50,[1],"0.461 µM [falling, full curve]"
COc1ccc(S(=O)(=O)N(CC(=O)Nc2cccnc2)c2ccccc2OC)cc1,AC50,[1],"2.59 µM [falling, partial curve, poor fit]"
COc1ccc(NC(=O)c2ccc(-n3nc(C)cc3C)cc2)cc1OC,AC50,[1],"11.2 µM [falling, partial curve, poor fit]"
CC(=O)NC(CC(=O)N(Cc1ccccc1)c1ccc(C)cc1)c1ccccc1 (stereo not given),AC50,[1],"35.5 µM [falling, single point]"
CCCCNC(=O)C(C1CCCCC1)N(CCN(C)C)C(=O)CCCN1C(=O)NC(c2ccc(-c3ccccc3)cc2)C(C(=O)OCc2ccccc2)=C1C (stereo not given),AC50,[1],"16.4 µM [falling, single point]"
CN(C)CCN(C)Cc1ccccc1Sc1cccc2ccccc12,AC50,[1],"18.4 µM [falling, single point]"
CCc1ccc(NC(=O)C2CCCN(S(=O)(=O)c3cccnc3)C2)cc1 (stereo not given),AC50,[1],"20 µM [falling, single point]"
CCc1nc(NCCCN2CCOCC2)c2oc3ccccc3c2n1,AC50,[1],"7.31 µM [falling, partial curve, poor fit]"
CC1CC1C(=O)OCC(=O)Nc1cccc(F)c1 (stereo not given),AC50,[1],"1.84 µM [rising, partial curve, poor fit]"
COc1ccc(NC(=S)Nc2ccccc2)c(OC)c1,AC50,[1],"25.1 µM [falling, single point]"
O=C(Nc1ccc2c(c1)OCCO2)c1cc(-n2cnnc2)ccc1Cl,AC50,[1],"8.2 µM [falling, partial curve, poor fit]"
Cn1c(=O)c2c(ncn2CC(=O)Nc2cccc(S(=O)(=O)Nc3ccccc3F)c2)n(C)c1=O,AC50,[1],"12.6 µM [falling, partial curve]"
CN(C)c1nc(-c2ccccc2)nc(-c2ccc(Cl)cc2)c1C#N,AC50,[1],"3.26 µM [falling, partial curve, poor fit]"
O=C(CNC(=O)c1ccccc1)c1ccccc1,AC50,[1],"9.2 µM [falling, partial curve]"
CCOc1ccccc1CNS(=O)(=O)c1cc(-c2cc(C)no2)ccc1C,AC50,[1],"10 µM [falling, partial curve, poor fit]"
COc1ccc(S(=O)(=O)Nc2cccc(NC(C)=O)c2)cc1,AC50,[1],"25.9 µM [falling, single point]"
COC(=O)c1c(NC(=O)c2ccc([N+](=O)[O-])o2)sc2c1CCN(C(C)C)C2,AC50,[1],"35.5 µM [falling, single point]"
Cc1ccc(N2C(=O)SC(Cc3ccccc3)C2=O)cc1 (stereo not given),AC50,[1],"0.1 µM [rising, full curve, poor fit]"
CC(C)CCNC(=O)CCCOc1cc(=O)n(C)c2ccccc12,AC50,[1],"12.6 µM [rising, single point]"
O=C(c1ccc2ccccc2c1)C1CCCN(C(=O)c2noc3c2CCCC3)C1 (stereo not given),AC50,[1],"28.2 µM [falling, single point]"
CN(C)/C=C/C(=O)c1ccc2noc(-c3cccc(F)c3)c2c1,AC50,[1],"11.2 µM [falling, partial curve, poor fit]"
CC(/C=N/NC(=O)COc1ccccc1C)=N\NC(=O)COc1ccccc1C,AC50,[1],"2.82 µM [falling, full curve]"
CCn1c(=O)cc(SCC(=O)N2CCN(C3CCCCC3)CC2)c2ccccc21,AC50,[1],"7.31 µM [rising, partial curve, poor fit]"
COc1ccc(CCn2c(=O)[nH]c3cc(C(=O)NCCN4CCOCC4)ccc3c2=O)cc1OC,AC50,[1],"23.1 µM [rising, single point]"
CN(Cc1ccccc1F)c1nc(-c2cccs2)nc2ccccc12,AC50,[1],"3.66 µM [rising, partial curve]"
Cc1nc(C)c(-c2csc(NCc3ccccc3)n2)s1,AC50,[1],"20 µM [falling, single point]"
COc1ccc(Cc2nnc(Nc3ccccc3OC)[nH]c2=O)cc1,AC50,[1],"3.98 µM [falling, full curve]"
Cc1c(C2(c3c(C)n(C)n(-c4ccccc4)c3=O)C(=O)Nc3ccc(F)cc32)c(=O)n(-c2ccccc2)n1C,AC50,[1],"29.1 µM [rising, single point]"
same,AC50,[2],"32.6 µM [falling, partial curve, poor fit]"
O=C(NC1CCN(Cc2ccc(Cl)cc2)CC1)c1cn(-c2ccccc2)nc1-c1cccnc1,AC50,[1],"23.1 µM [rising, partial curve]"
Cc1ncc([N+](=O)[O-])n1CCOC(=O)Nc1ccc([N+](=O)[O-])cc1,AC50,[1],"7.31 µM [rising, partial curve, poor fit]"
Cc1ccc(Cc2nnc3n(-c4ccccc4)nc(C(=O)c4ccccc4)n3c2=O)cc1,AC50,[1],"3.66 µM [falling, single point]"
COC(=O)c1cc2sccc2n1Cc1ccc(F)cc1,AC50,[1],"17.8 µM [rising, partial curve, poor fit]"
CC(OC(=O)C1CCN(S(=O)(=O)c2ccc(Cl)cc2)CC1)C(=O)N1CCc2ccccc21 (stereo not given),AC50,[1],"6.51 µM [rising, single point]"
Cc1[nH]nc2c1C1(C(=O)Nc3ccc([N+](=O)[O-])cc31)C(C#N)=C(N)O2 (stereo not given),AC50,[1],"2.91 µM [rising, partial curve, poor fit]"
O=C(CCn1nc(-c2ccc(Cl)cc2)ccc1=O)N1CCN(c2ccccn2)CC1,AC50,[1],"2.31 µM [rising, partial curve, poor fit]"
CN1CCN(c2nc(-c3cccs3)nc3ccccc23)CC1,AC50,[1],"13 µM [falling, partial curve, poor fit]"
Cn1cccc1C(=O)OCC(=O)Nc1sccc1C#N,AC50,[1],"13 µM [falling, partial curve]"
Cc1nc(NC(=O)c2cc3c(C)nn(-c4ccccc4)c3s2)sc1C(=O)Nc1ccccc1,AC50,[1],"8.2 µM [falling, partial curve, poor fit]"
CCC(C)NCCOCCOc1ccc(Cl)c2ccccc12 (stereo not given),AC50,[1],"5.62 µM [falling, partial curve]"
O=C(NCc1ccco1)c1cc(-c2cccnc2)nc2ccccc12,AC50,[1],"13 µM [falling, partial curve, poor fit]"
O=C1C=CC(=C(c2ccc(O)cc2)c2ccc(O)cc2)C=C1,AC50,[2],"16.4 µM [falling, partial curve, poor fit]"
Cc1cccc(C(=O)N2CCN(CCNC(=O)C(=O)Nc3ccc(F)cc3)CC2)c1,AC50,[1],"12.6 µM [falling, partial curve, poor fit]"
O=[N+]([O-])c1ccc2c(OCc3nnc(-c4ccccc4Br)o3)ncnc2c1,AC50,[1],"22.4 µM [falling, partial curve, poor fit]"
C/C(=N\NC(=O)c1cccc(Cl)c1)C1C(=O)c2ccccc2C1=O,AC50,[1],"5.8 µM [falling, partial curve, poor fit]"
Cc1ccc(C)c(NS(=O)(=O)c2ccc(-c3cnc(C4CC4)o3)cc2)c1,AC50,[1],"1 µM [rising, full curve]"
same,AC50,[2],"1.78 µM [falling, full curve]"
CC(C)Cn1c(SCC(=O)N2CCN(S(=O)(=O)c3ccccc3)CC2)nc2ccccc21,AC50,[1],"35.5 µM [falling, single point]"
COc1cccc2cc(C(=O)C3=C(O)C(=O)N(CCN4CCOCC4)C3c3ccc(C(C)(C)C)cc3)oc12 (stereo not given),AC50,[1],"14.1 µM [falling, single point]"
Cc1cccc(N2CCN(C(=O)c3ccc4ncsc4c3)CC2)c1C,AC50,[1],"7.31 µM [falling, partial curve, poor fit]"
CCCCn1c(SCC(=O)NCCOC)nc2ccc(N3CCOCC3)cc2c1=O,AC50,[1],"35.5 µM [falling, partial curve, poor fit]"
CCOC(=O)Cn1c(=O)c2c(nc(N3CCCCC3)n2Cc2ccccc2)n(C)c1=O,AC50,[1],"22.4 µM [falling, single point]"

# For convenience, some entries already given:
compound,measurement,setting,value
CC(C)CCNC(=O)CCCOc1cc(=O)n(C)c2ccccc12,AC50,[1],"12.6 µM [rising, single point]"
O=C(c1ccc2ccccc2c1)C1CCCN(C(=O)c2noc3c2CCCC3)C1 (stereo not given),AC50,[1],"28.2 µM [falling, single point]"
CN(C)/C=C/C(=O)c1ccc2noc(-c3cccc(F)c3)c2c1,AC50,[1],"11.2 µM [falling, partial curve, poor fit]"
CC(/C=N/NC(=O)COc1ccccc1C)=N\NC(=O)COc1ccccc1C,AC50,[1],"2.82 µM [falling, full curve]"
CCn1c(=O)cc(SCC(=O)N2CCN(C3CCCCC3)CC2)c2ccccc21,AC50,[1],"7.31 µM [rising, partial curve, poor fit]"
COc1ccc(CCn2c(=O)[nH]c3cc(C(=O)NCCN4CCOCC4)ccc3c2=O)cc1OC,AC50,[1],"23.1 µM [rising, single point]"
CN(Cc1ccccc1F)c1nc(-c2cccs2)nc2ccccc12,AC50,[1],"3.66 µM [rising, partial curve]"
Cc1nc(C)c(-c2csc(NCc3ccccc3)n2)s1,AC50,[1],"20 µM [falling, single point]"
COc1ccc(Cc2nnc(Nc3ccccc3OC)[nH]c2=O)cc1,AC50,[1],"3.98 µM [falling, full curve]"
Cc1c(C2(c3c(C)n(C)n(-c4ccccc4)c3=O)C(=O)Nc3ccc(F)cc32)c(=O)n(-c2ccccc2)n1C,AC50,[1],"29.1 µM [rising, single point]"
same,AC50,[2],"32.6 µM [falling, partial curve, poor fit]"
O=C(NC1CCN(Cc2ccc(Cl)cc2)CC1)c1cn(-c2ccccc2)nc1-c1cccnc1,AC50,[1],"23.1 µM [rising, partial curve]"
Cc1ncc([N+](=O)[O-])n1CCOC(=O)Nc1ccc([N+](=O)[O-])cc1,AC50,[1],"7.31 µM [rising, partial curve, poor fit]"
Cc1ccc(Cc2nnc3n(-c4ccccc4)nc(C(=O)c4ccccc4)n3c2=O)cc1,AC50,[1],"3.66 µM [falling, single point]"
